# Measured values taken from patent US8110365B2, “Compositions and methods for detecting and treating renal injury and inflammation” (Rhode Island Hospital, priority 2006, dated 2012).
# The chains behind the UniProt entries cited, without tags or fusion partners. Where a name states a change or a piece, a line headed by the entry shows the natural chain unless it says otherwise.
# UniProt Q04206: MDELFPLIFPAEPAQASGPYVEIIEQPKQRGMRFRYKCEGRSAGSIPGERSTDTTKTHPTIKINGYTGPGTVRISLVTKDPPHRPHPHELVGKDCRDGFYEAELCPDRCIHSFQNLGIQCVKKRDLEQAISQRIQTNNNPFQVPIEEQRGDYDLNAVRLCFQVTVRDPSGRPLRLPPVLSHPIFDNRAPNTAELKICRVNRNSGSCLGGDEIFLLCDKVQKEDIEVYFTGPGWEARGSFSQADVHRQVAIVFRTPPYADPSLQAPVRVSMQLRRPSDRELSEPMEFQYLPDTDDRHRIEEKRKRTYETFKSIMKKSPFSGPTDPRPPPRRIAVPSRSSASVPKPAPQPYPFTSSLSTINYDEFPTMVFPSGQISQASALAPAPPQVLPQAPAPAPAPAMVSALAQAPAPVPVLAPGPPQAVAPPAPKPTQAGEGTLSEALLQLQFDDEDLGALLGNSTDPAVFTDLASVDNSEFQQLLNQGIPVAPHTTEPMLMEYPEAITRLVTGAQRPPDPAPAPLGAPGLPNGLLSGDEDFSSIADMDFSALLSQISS
# UniProt P49841: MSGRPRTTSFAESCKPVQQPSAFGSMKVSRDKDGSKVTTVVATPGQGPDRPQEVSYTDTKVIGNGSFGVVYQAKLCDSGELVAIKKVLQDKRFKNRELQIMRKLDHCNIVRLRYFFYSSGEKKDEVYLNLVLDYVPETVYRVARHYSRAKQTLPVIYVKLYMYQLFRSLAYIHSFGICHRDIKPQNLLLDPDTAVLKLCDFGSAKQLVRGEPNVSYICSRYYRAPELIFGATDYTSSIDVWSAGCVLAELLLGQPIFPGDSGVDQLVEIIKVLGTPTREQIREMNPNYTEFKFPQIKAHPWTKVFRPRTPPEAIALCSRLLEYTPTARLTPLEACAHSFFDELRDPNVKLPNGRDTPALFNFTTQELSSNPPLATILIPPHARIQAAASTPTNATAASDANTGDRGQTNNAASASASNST
# No constants are given. Whether binding was seen depends on the method and setting. Binding seen in cells or lysates may run through a third protein. Some results given as binding are weak or reduced against the parent protein; the word gives no strength.
# Assays:
# [1] = target: NFkB p65 (RelA/p65), endogenous in HKC cells (human (endogenous in human HKC-8 cells)) (UniProt Q04206); assay: co-immunoprecipitation from HKC whole cell lysates (anti-GSK3b or anti-p65 IP)
# [2] = target: NFkB p65 (RelA/p65), endogenous in HKC cells (human (endogenous in human HKC-8 cells)) (UniProt Q04206); assay: co-immunoprecipitation from HKC whole cell lysates (anti-p65 IP, probed for GSK3b)
# [3] = target: NFkB p65 (RelA/p65), endogenous in HKC cells (human (endogenous in human HKC-8 cells)) (UniProt Q04206); assay: co-immunoprecipitation from transfected HKC cells after TNF-a (anti-p65 IP, probed for HA)
binding [1],binding [2],binding [3],Substance
binds,binds,,"Glycogen synthase kinase-3β (GSK3b), endogenous in HKC cells (from UniProt P49841 1-420) (enzyme)"
,,binds,hemagglutin (HA) conjugated uninhibitable mutant GSK3b (S9A) (from UniProt P49841 1-420) (enzyme)
,,binds,hemagglutin (HA) conjugated wild type GSK3b (WT) (from UniProt P49841 1-420) (enzyme)
